{
  "source": "paper PMC2666795",
  "about": "“Bacterial Genome Partitioning: N-Terminal Domain of IncC Protein Encoded by Broad-Host-Range Plasmid RK2 Modulates Oligomerisation and DNA Binding” (Journal of Molecular Biology, 2009)",
  "key": {"[1]": {"target": "IncC1-NΔ23 (23 aa removed from the N-terminus of IncC1) (plasmid RK2 (IncP-1)) (UniProt P07673)", "experiment": "AUC; velocity sedimentation of IncC1 lacking 23 N-terminal amino acids, data not shown; both purified"}, "[2]": {"target": "T1, IncC2 (259 aa), short ParA protein made from the second translational start of incC of plasmid RK2 (plasmid RK2 (IncP-1)) (UniProt P07673)", "T1 sequence": "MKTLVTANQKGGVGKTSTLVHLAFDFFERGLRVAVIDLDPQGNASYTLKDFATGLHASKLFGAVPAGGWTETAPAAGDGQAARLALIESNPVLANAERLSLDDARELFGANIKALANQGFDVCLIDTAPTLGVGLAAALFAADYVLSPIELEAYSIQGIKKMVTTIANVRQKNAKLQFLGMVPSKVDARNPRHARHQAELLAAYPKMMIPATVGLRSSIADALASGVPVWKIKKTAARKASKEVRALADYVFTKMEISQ", "experiment": "cross-linking; glutaraldehyde 0-0.1%, with 2 mM ATP; 5 μg of each protein in 50 μl, 10 mM MgCl2, 25 mM phosphate buffer pH 7.5; 30 min 37 °C, then 30 min 30 °C with glutaraldehyde; SDS-PAGE, Western blot with anti-IncC; both purified"}, "[3]": {"target": "T1, IncC2 (259 aa), short ParA protein made from the second translational start of incC of plasmid RK2 (plasmid RK2 (IncP-1))", "experiment": "cross-linking; glutaraldehyde cross-linking of mixed IncC1 and IncC2 with ADP, Western blot, data not shown; both purified"}, "[4]": {"target": "IncC1 (364 aa), long ParA protein encoded by incC of broad-host-range plasmid RK2 (plasmid RK2 (IncP-1)) (UniProt P07673)", "experiment": "AUC; velocity sedimentation, 30 μM IncC1 without ATP; precipitated protein cleared beforehand; 50 mM sodium phosphate pH 8.0, 100 mM NaCl, 40,000 rpm, 4 °C; both purified"}, "[5]": {"target": "T1, IncC2 (259 aa), short ParA protein made from the second translational start of incC of plasmid RK2 (plasmid RK2 (IncP-1))", "experiment": "cross-linking; glutaraldehyde 0-0.1%, no nucleotide; 5 μg of each protein in 50 μl, 10 mM MgCl2, 25 mM phosphate buffer pH 7.5; 30 min 37 °C, then 30 min 30 °C with glutaraldehyde; SDS-PAGE, Western blot with anti-IncC; both purified"}},
  "note": "These are yes or no findings as the source states them, for the method shown. Some results given as binding are weak or reduced against the parent protein; the word gives no strength.",
  "data": [
    {"binder": "IncC1-NΔ23 (23 aa removed from the N-terminus of IncC1) (domain or fragment, UniProt P07673 24-364) GAADHRDSAGRLSRWEATGDVRNVAGTDQGRSVASGASRVGRVRGQELARGVRAGNGGSAGTSGVHRPEVGSGRQEKTGNQTMKTLVTANQKGGVGKTSTLVHLAFDFFERGLRVAVIDLDPQGNASYTLKDFATGLHASKLFGAVPAGGWTETAPAAGDGQAARLALIESNPVLANAERLSLDDARELFGANIKALANQGFDVCLIDTAPTLGVGLAAALFAADYVLSPIELEAYSIQGIKKMVTTIANVRQKNAKLQFLGMVPSKVDARNPRHARHQAELLAAYPKMMIPATVGLRSSIADALASGVPVWKIKKTAARKASKEVRALADYVFTKMEISQ", "values": [
      {"measurement": "binding", "setting": "[1]", "result": "binds"}
    ]},
    {"binder": "IncC1 (364 aa), long ParA protein encoded by incC of broad-host-range plasmid RK2 (natural protein, plasmid RK2 (IncP-1), UniProt P07673 1-364, looked up, IncC1, the product of the first translational start of incC (parA) of IncP-1 plasmid RK2, 364 aa; also called His6-IncC1; His-IncC1; source: E. coli BL21 (printed: C600 BL21), modified pET28a vector, purified (nickel-agarose)) MGVIHEETAYRKPVPGGDPGAGSGAADHRDSAGRLSRWEATGDVRNVAGTDQGRSVASGASRVGRVRGQELARGVRAGNGGSAGTSGVHRPEVGSGRQEKTGNQTMKTLVTANQKGGVGKTSTLVHLAFDFFERGLRVAVIDLDPQGNASYTLKDFATGLHASKLFGAVPAGGWTETAPAAGDGQAARLALIESNPVLANAERLSLDDARELFGANIKALANQGFDVCLIDTAPTLGVGLAAALFAADYVLSPIELEAYSIQGIKKMVTTIANVRQKNAKLQFLGMVPSKVDARNPRHARHQAELLAAYPKMMIPATVGLRSSIADALASGVPVWKIKKTAARKASKEVRALADYVFTKMEISQ", "values": [
      {"measurement": "binding", "setting": "[2]", "result": "binds"},
      {"measurement": "binding", "setting": "[3]", "result": "binds"},
      {"measurement": "binding", "setting": "[4]", "result": "no binding (condition: in the absence of ATP; 30 μM IncC1)"}
    ]},
    {"binder": "N-terminal domain of IncC1 (amino acids 1-105) (domain or fragment, plasmid RK2 (IncP-1), UniProt P07673 1-105, looked up, N-terminal domain of IncC1 of plasmid RK2, amino acids 1-105, 11 kDa; also called NTD; IncC1 NTD; source: E. coli, expressed from pSMB315 (pGBT340 with incC1-NTD), purified) MGVIHEETAYRKPVPGGDPGAGSGAADHRDSAGRLSRWEATGDVRNVAGTDQGRSVASGASRVGRVRGQELARGVRAGNGGSAGTSGVHRPEVGSGRQEKTGNQT", "values": [
      {"measurement": "binding", "setting": "[5]", "result": "no binding (condition: in the absence of nucleotides)"}
    ]}
  ]
}
